Experimental data published in PMC2679207, “GLS-1, a Novel P Granule Component, Modulates a Network of Conserved RNA Regulators to Influence Germ Cell Fate Decisions” (PLoS Genetics, 2009).
Results are given in words; binding and its absence hold for the method and conditions named. Some binding calls cover weakened binding; strength is not graded here. Tags and fused reporters may be left off the sequences shown.

Experiments:
[1] = target: T1, GLD-3L (yeast two-hybrid fusion) (C. elegans) (UniProt Q95ZK7); test: two-hybrid; yeast; protein pairs fused to the LexA DNA binding domain and the Gal4 transcriptional activation domain; beta-galactosidase activities in arbitrary units
T1 sequence: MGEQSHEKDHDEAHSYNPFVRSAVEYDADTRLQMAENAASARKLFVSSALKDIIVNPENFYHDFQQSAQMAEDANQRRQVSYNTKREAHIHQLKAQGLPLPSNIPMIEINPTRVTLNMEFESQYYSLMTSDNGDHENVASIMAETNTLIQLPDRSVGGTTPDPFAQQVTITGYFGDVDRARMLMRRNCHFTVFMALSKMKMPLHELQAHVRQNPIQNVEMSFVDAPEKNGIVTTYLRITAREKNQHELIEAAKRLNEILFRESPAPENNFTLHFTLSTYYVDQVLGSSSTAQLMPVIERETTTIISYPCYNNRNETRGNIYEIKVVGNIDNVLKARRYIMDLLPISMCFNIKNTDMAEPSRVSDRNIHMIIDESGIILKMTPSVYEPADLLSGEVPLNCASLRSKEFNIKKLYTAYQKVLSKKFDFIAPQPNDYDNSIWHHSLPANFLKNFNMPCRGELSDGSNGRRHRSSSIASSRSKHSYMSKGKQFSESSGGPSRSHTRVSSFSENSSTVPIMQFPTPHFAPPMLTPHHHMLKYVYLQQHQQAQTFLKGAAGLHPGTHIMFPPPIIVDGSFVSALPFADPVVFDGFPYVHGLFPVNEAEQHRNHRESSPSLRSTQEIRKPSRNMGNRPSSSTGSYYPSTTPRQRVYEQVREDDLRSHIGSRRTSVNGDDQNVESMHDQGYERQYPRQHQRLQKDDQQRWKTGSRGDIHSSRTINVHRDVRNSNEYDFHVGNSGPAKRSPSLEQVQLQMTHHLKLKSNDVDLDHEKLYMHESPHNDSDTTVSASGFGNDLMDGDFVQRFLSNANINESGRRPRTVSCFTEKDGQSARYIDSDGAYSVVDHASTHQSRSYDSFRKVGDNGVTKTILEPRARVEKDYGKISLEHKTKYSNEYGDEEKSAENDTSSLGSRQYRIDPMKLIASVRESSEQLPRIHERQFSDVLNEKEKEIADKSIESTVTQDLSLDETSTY

[2] = target: T2, dmBic-C (yeast two-hybrid fusion) (Drosophila) (UniProt Q24009); test: as above
T2 sequence: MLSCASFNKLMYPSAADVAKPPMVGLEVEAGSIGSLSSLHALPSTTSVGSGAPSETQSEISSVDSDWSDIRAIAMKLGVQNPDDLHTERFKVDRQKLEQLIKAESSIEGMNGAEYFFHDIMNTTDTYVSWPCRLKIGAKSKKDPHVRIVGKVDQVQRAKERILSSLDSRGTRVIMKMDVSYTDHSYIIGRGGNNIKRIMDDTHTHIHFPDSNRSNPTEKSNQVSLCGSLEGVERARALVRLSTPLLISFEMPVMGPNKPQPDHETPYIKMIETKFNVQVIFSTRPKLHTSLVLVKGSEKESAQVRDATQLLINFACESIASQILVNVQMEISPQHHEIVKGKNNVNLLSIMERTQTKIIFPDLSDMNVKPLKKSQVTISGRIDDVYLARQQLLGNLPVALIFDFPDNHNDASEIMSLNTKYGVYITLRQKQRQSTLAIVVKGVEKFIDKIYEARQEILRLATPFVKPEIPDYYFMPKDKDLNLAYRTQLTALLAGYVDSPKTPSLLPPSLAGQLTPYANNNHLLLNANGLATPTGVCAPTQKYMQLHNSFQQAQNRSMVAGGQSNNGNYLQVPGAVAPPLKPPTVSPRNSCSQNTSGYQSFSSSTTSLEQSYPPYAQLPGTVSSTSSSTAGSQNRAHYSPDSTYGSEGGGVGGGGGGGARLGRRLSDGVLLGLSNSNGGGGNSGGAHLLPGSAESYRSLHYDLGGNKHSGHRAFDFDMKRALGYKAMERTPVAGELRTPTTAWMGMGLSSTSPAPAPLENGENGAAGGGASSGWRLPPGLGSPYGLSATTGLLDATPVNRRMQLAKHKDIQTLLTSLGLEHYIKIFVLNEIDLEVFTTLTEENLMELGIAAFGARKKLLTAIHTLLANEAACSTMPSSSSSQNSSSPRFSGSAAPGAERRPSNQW

[3] = target: T3, GLD-3 (yeast two-hybrid fusion, isoform not stated) (C. elegans) (UniProt Q95ZK7); test: two-hybrid; directed yeast 2-hybrid binding-tests, data not shown
T3 sequence: T1 sequence

- binding [1]: binds
- binding [2]: no binding
- binding [3]: binds
B1: GLS-1 (yeast two-hybrid fusion) (protein, UniProt Q8I4M5 1-1052)
chain: MRCLISYLFHSFLIFLKFIRSDVTALTLQEKRKKSRLTGILMKSMANKKNHQQKKSTDGSTMNGNNATATAAATTQNSSQIGQNSNSSHSVTNDNTSSNNASTSTSSITSTTTTTTTVPSSQQSQSQNQYSHQRLSSTSSTSQQTGISKFPAKKAGHNELEKTSNTANSQSGAFKGTTNKDRPKEKEKNTHSGNRQSQVNHNHHHSNHVSGNQQNRKNKNRDHSNQSYRGGYTHNHNNYHSLENAKSSGFLSNSSLSSAGQISASSAPPVSTTPTAIPIFQESKIVQTDPPVEEAKKKKEKPKIKRDEEPMPYKSTDPKNMDSVMAFKEHDEWDKVEFMCELVSFLSPTDLRLLGNCIEGSVRCYNNQMRPVEKTSNCSDPTAGLPQFVCSPPPPPQQVYYFPGIADAALYQTRNAVNSVFVQQHPPGLPPLLGGMQNIMYPPDANFHHSTSCTTPSSSVSVANKDVNNVPVVLSSSVNGISNNIPSDRQQLDSKPNTARGSSGNINQSNTTSPEPEPGSNHISTTAANPAHPTSVTVPQSVPPVPQEPELFLKSVLDLTSYIYTLMAVCSSTNRKSAAKISDYVQNVILREKSQILERIPDELDKITVLQEIGKIVAAMTHHPAITLDDKMKYAALRDGLRAQIETLFRQYYTTQKQLEQSNLVVPSSQAVGDENDTDSDHESEEEFEPLSGVMGSRFESNPVQPSPSVPGTFFIIRFIGRQIEKNDNLFSLEIHWSDGDRTFAQRSRDQLKALQHRLLDEFGQQRSEKYLHQGCTTSYSSFDDDNKKLSASTSTMETFAPNGERIVPRLARDATPAQYVQYINELSDLPARMMLSAVICEEFNGTRAKTEDLLQETREASDGLIYSRWKNPRAKSPVRYFKRNATGSIDPIELPVNMQPFLYSNIPQTQVQTLFPSCSNCGGPHAPKHCEKQTLLSKKGDHRTRSDGEGSQQNGGTSSSNSYAPIHANLPHAVYIENPQAMLGSNHFNHHQQQHIIQNTIFHNGGQFRANGTYEPQIPIAYYHAQGTVQNSNNTGGVNGNSGGGNQNSNF
